# Test results published in PubChem BioAssay AID1671190 (National Center for Advancing Translational Sciences (NCATS), 2021).
# Protein sequences, listed by entry. Tags and fused reporters are not part of them.
# UniProt P18054, whole entry, looked up: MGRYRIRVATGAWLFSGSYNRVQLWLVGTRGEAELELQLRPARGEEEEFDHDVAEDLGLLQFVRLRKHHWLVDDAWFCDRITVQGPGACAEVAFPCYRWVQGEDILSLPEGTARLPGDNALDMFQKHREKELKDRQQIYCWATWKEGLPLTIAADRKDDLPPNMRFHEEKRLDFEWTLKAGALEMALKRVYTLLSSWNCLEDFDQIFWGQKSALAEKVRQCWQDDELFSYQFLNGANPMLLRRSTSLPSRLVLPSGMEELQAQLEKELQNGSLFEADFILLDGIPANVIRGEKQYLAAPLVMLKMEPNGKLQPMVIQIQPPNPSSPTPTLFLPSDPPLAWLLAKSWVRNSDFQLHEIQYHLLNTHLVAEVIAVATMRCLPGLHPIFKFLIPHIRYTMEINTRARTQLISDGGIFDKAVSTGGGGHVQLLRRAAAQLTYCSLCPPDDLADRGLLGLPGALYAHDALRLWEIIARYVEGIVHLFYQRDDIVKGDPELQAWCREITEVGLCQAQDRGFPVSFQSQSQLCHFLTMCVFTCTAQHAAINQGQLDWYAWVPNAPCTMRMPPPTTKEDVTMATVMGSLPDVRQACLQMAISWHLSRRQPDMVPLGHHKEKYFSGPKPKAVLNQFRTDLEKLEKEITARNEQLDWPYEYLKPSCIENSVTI
# The whole screen tested about 580,000 compounds, of which about 6,100 (1.1%) were called active. Inconclusive means that the source gave no clear call. Such entries were picked first, then a sample of the others. Calls come from the whole dose curve; as a rule, active = well fitted inhibition curve with a large enough effect; inconclusive = small, poorly fitted or top-dose-only effect, or another doubt; inactive = no such curve, though single readings can be large or run the other way. Potencies of inconclusive entries are doubtful fits and often do not repeat.
# Biological target: Polyunsaturated fatty acid lipoxygenase ALOX12 (Homo sapiens) (UniProt P18054)
# Assay: Primary qHTS assay for inhibitors of human arachidonate 12S-lipoxygenase (ALOX12): Round 2
# Settings: purified 12hLO, xylenol orange hydroperoxide absorbance; series mostly up to 108 µM
# In short: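 Purified human 12hLO (150 nM final) in 25 mM Hepes, 0.01% Triton X-100, pH 7.0 was preincubated 15 min at room temperature with compound. Then 40 uM arachidonic acid was added, 30 min. Hydroperoxide was read by Fe-XO absorbance ratio 573/405 nm.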
# Potency is the fitted concentration of half-maximal effect.
row,SMILES,Potency
1,CCC(=O)N1CCN(CCNc2cc(=O)oc3ccccc23)CC1,inactive
2,N[C@@H](C(=O)O)[C@H](CC(=O)O)c1ccc(Cl)cc1,"inconclusive: 31.6 µM [inhibitor, single point]"
3,CCN=C1NC(c2ccccc2C(F)(F)F)C(C(=O)OC)=C(C)N1C (centres undefined),"inconclusive: 56.2 µM [inhibitor, partial curve, poor fit]"
4,COc1ccc(C(=O)NC(=S)Nc2cccc(S(=O)(=O)N3CCOCC3)c2)cc1,active: 28.2 µM
5,COc1cc(/C=C2\Oc3cc(OS(=O)(=O)c4ccccc4)ccc3C2=O)cc(OC)c1OC,inactive
6,Cc1ccc(NC(=O)Nc2cn(CC(C)C)c(=O)c3ccccc23)c(C)c1,"inconclusive: 56.2 µM [inhibitor, partial curve, poor fit]"
7,C(COC1CC2CC1C1C2CC2OC21)OC1CC2CC1C1C2CC2OC21 (centres undefined),inactive
8,CCCc1c(C(=O)Nc2ccc(F)cc2F)cnn1-c1ccccc1,inactive
9,Cc1ccc(C)c(OCCC(=O)OCC(=O)N2CCN(S(=O)(=O)c3ccc(Cl)cc3)CC2)c1,inactive
10,O=C(Nc1ccc(Cl)cc1)c1nc[nH]c1C(=O)NCc1ccccc1,"inconclusive: 17.8 µM [inhibitor, partial curve]"
11,Cn1c(N)c(C(=O)COC(=O)Cc2ccccc2F)c(=O)n(C)c1=O,"inconclusive: 44.7 µM [inhibitor, single point]"
12,Cc1c(N(CC(=O)O)S(=O)(=O)c2ccccc2)c(=O)n(-c2ccccc2)n1C,"inconclusive: 44.7 µM [inhibitor, partial curve, poor fit]"
13,O=C1Cc2cc(-c3csc(Nc4ccccc4F)n3)ccc2N1,"inconclusive: 25.1 µM [inhibitor, single point]"
14,CCCOc1cccc(C(=O)Nc2ccc(CN3CCOCC3)cc2)c1,"inconclusive: 56.2 µM [inhibitor, partial curve, poor fit]"
15,COC(=O)c1ccccc1NC(=S)NC(NC(=O)COc1ccccc1)C(Cl)(Cl)Cl (centres undefined),"inconclusive: 17.8 µM [inhibitor, partial curve, poor fit]"
16,COCCn1nnnc1C(c1cc2cccc(C)c2[nH]c1=O)N1CCN(c2ccccc2F)CC1 (centres undefined),"inconclusive: 7.94 µM [inhibitor, full curve, poor fit]"
17,COc1cc2c(cc1OC)C(CNS(=O)(=O)c1ccc(C)cc1)N(C(=O)NC(C)(C)C)CC2 (centres undefined),"inconclusive: 79.4 µM [inhibitor, single point]"
18,CCCOc1ccc(-c2nc(C#N)c(NCc3ccccc3Cl)o2)cc1,inactive
19,COc1cccc(NC(=O)CSc2nnc3c(n2)[nH]c2ccc(C)cc23)c1,"inconclusive: 89.1 µM [inhibitor, partial curve, poor fit]"
20,CCC(C)/C(C)=N/Nc1nc2ccccc2[nH]1 (centres undefined),"inconclusive: 39.8 µM [inhibitor, partial curve, poor fit]"
21,Cc1c(C(=O)Nc2ccccc2C(N)=O)sc2nc(-c3ccc(F)cc3)cn12,"inconclusive: 44.7 µM [inhibitor, partial curve, poor fit]"
22,COCCc1noc([C@@H]2CN(Cc3ccc4c(c3)CCO4)C[C@H]2CO)n1,inactive

row,SMILES,Potency
1,COc1ccc(/C=c2\sc3nc(-c4ccccc4)c(-c4ccccc4)n3c2=O)cc1OC,inactive
2,O=C(O)Cn1nc(-c2ccccc2)c2ccccc2c1=O,"inconclusive: 44.7 µM [inhibitor, single point]"
3,O=C(OC1CCOC1=O)c1ccccc1SC1CCOC1=O (centres undefined),"inconclusive: 44.7 µM [inhibitor, partial curve, poor fit]"
4,Cc1ccc(S(=O)(=O)N2CCN(c3nc4ccccc4nc3-n3nc(C)cc3C)CC2)cc1,"inconclusive: 126 µM [inhibitor, single point]"
5,O=C(COC(=O)Cc1cn2ccsc2n1)NC12CC3CC(CC(C3)C1)C2,"inconclusive: 25.1 µM [inhibitor, single point]"
6,O=[N+]([O-])c1ccc(CN2CCN(c3ccc(Cl)cc3)CC2)o1,"inconclusive: 7.94 µM [inhibitor, full curve, poor fit]"
7,CCC[C@H]1[C@@H](NC(=O)Nc2cc(Cl)cc(Cl)c2)CC[C@@]23CCCN2C(=O)CCC[C@@H]13,"inconclusive: 112 µM [inhibitor, single point]"
8,CCN(CC(=O)Nc1c(F)cccc1F)C(=O)CCC(=O)c1ccc(C)cc1,"inconclusive: 56.2 µM [inhibitor, partial curve, poor fit]"
9,CCOC(=O)c1[nH]c(C)c(CN(CCc2ccc(OC)c(OC)c2)C(=O)CCCC(=O)O)c1C,"inconclusive: 112 µM [inhibitor, single point]"
10,O=C(c1cc(C2CC2)nc2ccc(Br)cc12)N1N=C(C(F)F)CC1(O)C(F)F (centres undefined),inactive
11,CC(=O)N1CCC(N[C@@H]2C[C@H](Cn3cc(C4CC4)nn3)[C@@H](O)[C@H]2O)CC1,"inconclusive: 31.6 µM [inhibitor, full curve]"
12,Cc1cc2oc(=O)cc(CN3CCN(C(=O)c4ccco4)CC3)c2cc1C(C)C,"inconclusive: 35.5 µM [inhibitor, partial curve, poor fit]"
13,COc1ccccc1C(=O)OCc1cc(=O)n2nc(C3CCCCC3)sc2n1,inactive
14,CC(=O)N1C[C@@H]2CCCN3CCC[C@@H]([C@H]23)[C@H]1CCCC(=O)NCCC1CCN(C(C)C)CC1,inactive
15,CCSC1=NSC2=NC(=O)/C(=C\c3coc4ccccc4c3=O)C(=N)N12,active: 44.7 µM
16,COc1cccc(C(=O)Oc2ccccc2/C=C\C(=O)c2cc3ccccc3o2)c1,inactive
17,NC(=S)N=Nc1c(O)[nH]c2c(Cl)cc(Cl)cc12,"inconclusive: 50.1 µM [inhibitor, partial curve, poor fit]"
18,CCc1ccc(N2NC(=O)/C(=C/C=C/c3ccco3)C2=O)cc1,active: 28.2 µM
19,O=C(NC(c1ccc(-c2ccccc2)cc1)c1cnccn1)C1CCN(CCOc2ccc(Cl)cc2Cl)CC1 (centres undefined),active: 44.7 µM
20,O=C(N/N=C/c1cc(Cl)cc([N+](=O)[O-])c1O)c1cc(-c2ccccn2)nc2ccccc12,inactive
21,COc1ccc(CCNC(=S)NCCc2c[nH]c3ccccc23)cc1,active: 44.7 µM
22,O=C(O[C@H]1CC[C@@]23CCCN2C(=O)CCC[C@H]3[C@H]1Cc1ccccc1)N1CCN(c2ccccc2)CC1,"inconclusive: 44.7 µM [inhibitor, partial curve, poor fit]"

# Arranged by number of heavy atoms (smallest number first): some entries from above.
row,SMILES,Potency
21,COc1ccc(CCNC(=S)NCCc2c[nH]c3ccccc23)cc1,active: 44.7 µM
11,CC(=O)N1CCC(N[C@@H]2C[C@H](Cn3cc(C4CC4)nn3)[C@@H](O)[C@H]2O)CC1,"inconclusive: 31.6 µM [inhibitor, full curve]"
7,CCC[C@H]1[C@@H](NC(=O)Nc2cc(Cl)cc(Cl)c2)CC[C@@]23CCCN2C(=O)CCC[C@@H]13,"inconclusive: 112 µM [inhibitor, single point]"
1,COc1ccc(/C=c2\sc3nc(-c4ccccc4)c(-c4ccccc4)n3c2=O)cc1OC,inactive

# (listing goes on)

row,SMILES,Potency
1,CCc1cccc(CC)c1NC(=O)C1CCN(C(=O)c2ccco2)CC1,"inconclusive: 44.7 µM [inhibitor, partial curve, poor fit]"
2,Cc1ccc(OCCNCC(O)COc2ccccc2)cc1 (centres undefined),"inconclusive: 12.6 µM [inhibitor, full curve, poor fit]"
3,C/C(=N\NS(=O)(=O)c1ccc(Br)cc1)c1ccncc1,active: 31.6 µM
4,CC(/C=N/NC(=O)c1ccc(C)cc1)=C\c1ccccc1,"inconclusive: 63.1 µM [inhibitor, partial curve, poor fit]"
5,CC(C)CC(=O)Nc1ccc(C(=O)COc2ccc(-c3nnco3)cc2)cc1,inactive
6,COc1ccc(Oc2c(C)oc3cc(OCC(=O)c4ccccc4)ccc3c2=O)cc1,inactive
7,COc1ccccc1NC(=O)CSc1nc(O)cc(=O)n1-c1ccccc1OC,"inconclusive: 17.8 µM [inhibitor, full curve, poor fit]"
8,O=C(CN1C(=O)NC2(CCCCC2)C1=O)N1CCN(S(=O)(=O)c2ccc(Cl)s2)CC1,"inconclusive: 100 µM [inhibitor, single point]"
9,COc1cccc(-c2cc(C3CCN(C(=O)Nc4ccc(OC)c(OC)c4)CC3)[nH]n2)c1,"inconclusive: 50.1 µM [inhibitor, partial curve, poor fit]"
10,O=C1Nc2ccccc2O[C@H]2C[C@@H]1N(Cc1ccc(C(F)(F)F)cc1)C2,inactive
11,Cc1ccc2c(c1)-c1nc(SCC(=O)Nc3cc(F)ccc3C)ncc1S(=O)(=O)N2C,"inconclusive: 63.1 µM [inhibitor, partial curve, poor fit]"
12,O=C(C[C@@H]1C/C=C\C[C@@H](NC(=O)OCC2c3ccccc3-c3ccccc32)C(=O)OCCNC1=O)N[C@@H](CO)Cc1ccccc1,"inconclusive: 79.4 µM [inhibitor, partial curve, poor fit]"
13,O=C1Nc2c(Br)cccc2C1=O,"inconclusive: 31.6 µM [inhibitor, single point]"
14,Cc1cccc(-c2onc3ccc(C(=O)/C=C/N(C)C)cc23)c1,"inconclusive: 35.5 µM [inhibitor, partial curve, poor fit]"
15,COc1ccc(CC(=O)N2CCC(N3CC4CC(C3)[C@H]3CCCC(=O)N3C4)CC2)cc1 (some centres undefined),"inconclusive: 3.98 µM [inhibitor, full curve]"
16,CN(C)c1ccc(/C=C/C(=O)c2ccc3c(c2)OCO3)cc1,"inconclusive: 28.2 µM [inhibitor, single point]"
17,Cc1cc2c(cc1C)N(C(=O)CSC1=NCCS1)C(C)(C)c1ssc(=S)c1-2,"inconclusive: 3.98 µM [inhibitor, full curve, poor fit]"
18,C/C(CC(=O)Nc1ccc(N(C)C)cc1)=N\NC(=O)C(=O)NCc1ccccc1,inactive
19,Cc1cccc(NC(=O)CSC2=C(C#N)C(c3ccccc3C)C3=C(CCCC3=O)N2)c1 (centres undefined),"inconclusive: 22.4 µM [inhibitor, partial curve, poor fit]"
20,C=CCN(CC=C)C(=O)CSc1nnc(-c2c[nH]c3ccccc23)o1,"inconclusive: 3.55 µM [inhibitor, full curve, poor fit]"
